In patent publication US20250099448A1, “HETEROCYCLIC COMPOUNDS” (Hoffmann-La Roche Inc., priority 2022, published 2025) one finds IC50 data, which are given here for 2 molecules.

The chains behind the UniProt entries cited, without tags or fusion partners.
UniProt Q99685, whole entry: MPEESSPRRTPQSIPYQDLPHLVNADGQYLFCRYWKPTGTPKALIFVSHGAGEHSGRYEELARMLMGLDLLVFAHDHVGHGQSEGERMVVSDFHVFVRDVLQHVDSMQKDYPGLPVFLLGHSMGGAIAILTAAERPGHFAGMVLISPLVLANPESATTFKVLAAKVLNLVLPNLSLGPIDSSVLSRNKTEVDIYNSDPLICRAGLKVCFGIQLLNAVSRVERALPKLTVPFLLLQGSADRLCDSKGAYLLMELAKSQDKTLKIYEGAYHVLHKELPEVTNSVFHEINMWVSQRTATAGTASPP

The match of structure and compound is tentative.

The test deals with MAGL protein (Homo sapiens, UniProt Q99685). Nature of the test: 2-AG assay: MAGL inhibitory activity by hydrolysis of 2-arachidonoylglycerol to arachidonic acid, followed by mass spectrometry. To be noted: read-out: IC50 MAGL, 8 μM 2-arachidonoylglycerol, 15 min preincubation, 30 min reaction at RT, RapidFire MS readout. The procedure: Compounds of formula (I) were profiled for MAGL inhibitory activity by determining the enzymatic activity by following the hydrolysis of the natural substrate 2-arachidonoylglycerol (2-AG) resulting in arachidonic acid, which can be followed by mass spectrometry. This assay is hereinafter abbreviated “2-AG assay”. The 2-AG assay was carried out in 384 well polypropylene assay plates. Compound dilutions were made in 100% DMSO in a polypropylene plate in 3-fold dilution steps to give a final concentration range in the assay from 12.5 μM to […]. Compound dilutions were added to MAGL protein in assay buffer (50 mM TRIS, 1 mM EDTA, 0.01% (v/v) Tween-20, 2.5% (v/v) DMSO). After shaking, the plate was incubated for 15 min at RT. To start the reaction, 2-arachidonoylglycerol in assay buffer was added. The final concentrations in the assay was […] for MAGL protein and 8 μM 2-arachidonoylglyerol. After shaking and 30 min incubation at RT, the reaction was quenched by the addition of two assay volumes of acetonitrile containing 4 μM of d8-arachidonic acid. The amount of arachidonic acid formed was traced by an online SPE system (Agilent Rapidfire) coupled to a triple quadrupole mass spectrometer. […] The activity of the compounds was calculated based on the ratio of intensities [arachidonic acid/d8-arachidonic acid].

As usually defined, the IC50 is the concentration at which inhibition is half-maximal. With `Cc1nc(-c2ccc(C3CN(C(=O)N4CC5(CC(c6nnc(C7CC7)[nH]6)C5)C4)C3)cc2)c(C)s1`, the IC50 came out at 0.18 nM.
As for `N#Cc1cnn(CC2CC3(C2)CN(C(=O)N2CC4(CC(c5nc(C6CC(F)(F)C6)n[nH]5)C4)C2)C3)c1`, the figure is 2010 nM.
